Some entries share one result that the patent states for a list of compounds.
Columns and labels:
Type in all cases: in vivo
Nephotettix cincticeps = Nephotettix cincticeps (green rice leaf hopper), contact action; settings: treated circular filters, 5 adult leaf hoppers, mortality after 24 h
Prodenia litura = Prodenia litura (Egyptian cotton leaf worm), contact action; settings: treated filters, 5 caterpillars, mortality after 24 h
Tetranychus telarius = Tetranychus telarius (common red spider mite), contact action; settings: potted dwarf beans treated, infected after 24 h, attack determined after 12 days in the greenhouse
Aphis fabae = Aphis fabae (black fly), contact action; settings: infested dwarf beans (Vicia faba) treated with aqueous preparation, mortality after 24 h

| SMILES | action threshold (lowest concentration causing 80-100% inhibition or mortality) (Nephotettix cincticeps) | action threshold (lowest concentration causing 80-100% inhibition or mortality) (Prodenia litura) | action threshold (lowest concentration causing 80-100% inhibition or mortality) (Tetranychus telarius) | action threshold (lowest concentration causing 80-100% inhibition or mortality) (Aphis fabae) |
| --- | --- | --- | --- | --- |
| CNC(=O)C(=NOC)c1ccccc1CON=C(C)C(C)=NOC [I.02] | ≤ 0.4 mg |  |  |  |
| CNC(=O)C(=NOC)c1ccccc1CON=C(C)C(C)=NOC(C)C [I.04] | ≤ 0.4 mg | ≤ 0.4 mg |  |  |
| CNC(=O)C(=NOC)c1ccccc1CON=C(C)C(C)=NOCC=C(C)C [I.10] | ≤ 0.4 mg |  |  |  |
| CNC(=O)C(=NOC)c1ccccc1CON=C(C)C(C)=NOCC=CCl [I.17] | ≤ 0.4 mg | ≤ 0.4 mg |  |  |
| CNC(=O)C(=NOC)c1ccccc1CON=C(C)C(C)=NOCCCCCc1ccco1 [I.24] | ≤ 0.4 mg |  |  |  |
| CNC(=O)C(=NOC)c1ccccc1CON=C(C)C(C)=NOCCCCCCc1cccs1 [I.29] | ≤ 0.4 mg |  |  |  |
| CNC(=O)C(=NOC)c1ccccc1CON=C(C)C(=NOCC=CCl)C(C)(C)C [I.37] |  |  | ≤ 400 ppm |  |
| CNC(=O)/C(=N/OC)c1ccccc1CO/N=C(C)/C(=N/OC)c1ccccc1 [I.46, (E)-2-methoxyimino-2-[2′-(1″-methyl, 1″-(1′″-(E)-methoxyimino, , 1′″-phenyl)methyl]-(E)-iminooxymethyl]phenylacetic acid monomethylamide] | ≤ 0.4 mg |  |  |  |
| CCON=C(C(C)=NOCc1ccccc1C(=NOC)C(=O)NC)c1ccccc1 [I.47] | ≤ 0.4 mg |  |  |  |
| CNC(=O)C(=NOC)c1ccccc1CON=C(C)C(=NOC(C)C)c1ccccc1 [I.48] | ≤ 0.4 mg |  |  |  |
| CNC(=O)C(=NOC)c1ccccc1CON=C(C)C(=NOCCCCCCc1ccc(Cl)cc1)c1ccccc1 [I.52] | ≤ 0.4 mg |  |  |  |
| CCON=C(C(=NOCc1ccccc1C(=NOC)C(=O)NC)c1ccccc1)c1ccccc1 [I.55] | ≤ 0.4 mg |  |  |  |
| CNC(=O)C(=NOC)c1ccccc1CON=C(C)C(C)=NOCC(C)Oc1ccc(Cl)cc1 (stereo not drawn) [I.68] |  |  |  | ≤ 400 ppm |
| CNC(=O)C(=NOC)c1ccccc1CON=C(C)C(C)=NOCCOCCc1ccccc1 [I.69] |  |  |  | ≤ 400 ppm |
| CNC(=O)C(=NOC)c1ccccc1CON=C(C)C(C)=NOCCC=Cc1cccc(OC)c1 [I.70] |  |  |  | ≤ 400 ppm |
| CNC(=O)C(=NOC)c1ccccc1CON=C(C)C(C)=NOCCC=Cc1ccc(F)cc1 [I.71] |  |  |  | ≤ 400 ppm |
| CNC(=O)C(=NOC)c1ccccc1CON=C(C)C(C)=NOCc1cc(C(C)C)no1 [I.74] | ≤ 0.4 mg |  |  |  |
| CNC(=O)C(=NOC)c1ccccc1CON=C(C)C(C)=NOCc1cc(C2CC2)no1 [I.75] | ≤ 0.4 mg |  |  |  |
| CNC(=O)C(=NOC)c1ccccc1CON=C(C)C(=NOC)c1ccc(OC)cc1 [I.78] | ≤ 0.4 mg | ≤ 0.4 mg |  |  |

| SMILES | action threshold (lowest concentration causing 80-100% inhibition or mortality) (Nephotettix cincticeps) | action threshold (lowest concentration causing 80-100% inhibition or mortality) (Prodenia litura) | action threshold (lowest concentration causing 80-100% inhibition or mortality) (Tetranychus telarius) | action threshold (lowest concentration causing 80-100% inhibition or mortality) (Aphis fabae) |
| --- | --- | --- | --- | --- |
| CCON=C(C(C)=NOCc1ccccc1C(=NOC)C(=O)NC)c1ccc(OC)cc1 [I.79] | ≤ 0.4 mg | ≤ 0.4 mg |  |  |
| CNC(=O)C(=NOC)c1ccccc1CON=C(C)C(=NOC(C)C)c1ccc(OC)cc1 [I.81] |  |  |  | ≤ 400 ppm |
| CNC(=O)C(=NOC)c1ccccc1CON=C(C)C(=NOCc1cccc(Br)c1)c1ccccc1 [I.86] |  |  |  | ≤ 400 ppm |
| CNC(=O)C(=NOC)c1ccccc1CON=C(C)C(=NOC)c1ccc(Cl)cc1 [I.91] |  | ≤ 0.4 mg | ≤ 400 ppm |  |
| CCON=C(C(C)=NOCc1ccccc1C(=NOC)C(=O)NC)c1ccc(Cl)cc1 [I.92] | ≤ 0.4 mg | ≤ 0.4 mg | ≤ 400 ppm |  |
| CCCON=C(C(C)=NOCc1ccccc1C(=NOC)C(=O)NC)c1ccc(Cl)cc1 [I.93] |  |  | ≤ 400 ppm |  |
| CNC(=O)C(=NOC)c1ccccc1CON=C(C)C(=NOC(C)C)c1ccc(Cl)cc1 [I.94] |  | ≤ 0.4 mg |  | ≤ 400 ppm |
| CCCCCCON=C(C(C)=NOCc1ccccc1C(=NOC)C(=O)NC)c1ccc(Cl)cc1 [I.97] |  |  | ≤ 400 ppm | ≤ 400 ppm |
| CCON=C(C(C)=NOCc1ccccc1C(=NOC)C(=O)NC)c1ccc(F)cc1 [I.101] |  | ≤ 0.4 mg | ≤ 400 ppm |  |
| CCCON=C(C(C)=NOCc1ccccc1C(=NOC)C(=O)NC)c1ccc(F)cc1 [I.102] |  | ≤ 0.4 mg | ≤ 400 ppm |  |
| CNC(=O)C(=NOC)c1ccccc1CON=C(C)C(=NOC(C)C)c1ccc(F)cc1 [I.103] |  | ≤ 0.4 mg |  | ≤ 400 ppm |
| CNC(=O)C(=NOC)c1ccccc1CON=C(C)C(=NOCC(C)C)c1ccc(F)cc1 [I.104] |  |  | ≤ 400 ppm |  |
| CCCCON=C(C(C)=NOCc1ccccc1C(=NOC)C(=O)NC)c1ccc(F)cc1 [I.105] |  |  | ≤ 400 ppm | ≤ 400 ppm |
| CCCCCCON=C(C(C)=NOCc1ccccc1C(=NOC)C(=O)NC)c1ccc(F)cc1 [I.106] |  |  | ≤ 400 ppm | ≤ 400 ppm |
| C#CCON=C(C(C)=NOCc1ccccc1C(=NOC)C(=O)NC)c1ccc(F)cc1 [I.108] |  | ≤ 0.4 mg | ≤ 400 ppm |  |
| CCCCCCON=C(C(C)=NOCc1ccccc1C(=NOC)C(=S)NC)c1ccc(Cl)cc1 [II.12] |  |  |  | ≤ 400 ppm |
| CCON=C(C(C)=NOCc1ccccc1C(=NOC)C(=S)NC)c1ccc(F)cc1 [II.13] |  |  | ≤ 400 ppm | ≤ 400 ppm |
| CCCON=C(C(C)=NOCc1ccccc1C(=NOC)C(=S)NC)c1ccc(F)cc1 [II.14] |  |  | ≤ 400 ppm |  |
| CNC(=S)C(=NOC)c1ccccc1CON=C(C)C(=NOC(C)(C)C)c1ccc(F)cc1 [II.15] |  |  | ≤ 400 ppm |  |

From patent USRE37873E1, “Phenylacetic acid derivatives, preparation thereof and intermediates therefor, and compositions containing them” (BASF Aktiengesellschaft, priority 1994, dated 2002)
